Publication PMC9596218
Results are given in words; binding and its absence hold for the method and conditions named. In cells and extracts the contact can be indirect. Some entries that bind do so weakly or less than the wild type.

Chains of the proteins cited; added tags and fusions are not shown.
UniProt P10415: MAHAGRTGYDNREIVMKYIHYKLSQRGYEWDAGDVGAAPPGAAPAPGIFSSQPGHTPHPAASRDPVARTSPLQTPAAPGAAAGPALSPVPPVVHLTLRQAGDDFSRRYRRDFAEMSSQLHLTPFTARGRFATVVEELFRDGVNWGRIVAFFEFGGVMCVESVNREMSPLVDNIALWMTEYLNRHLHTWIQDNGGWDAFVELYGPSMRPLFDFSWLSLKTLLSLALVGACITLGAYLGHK
UniProt Q14457: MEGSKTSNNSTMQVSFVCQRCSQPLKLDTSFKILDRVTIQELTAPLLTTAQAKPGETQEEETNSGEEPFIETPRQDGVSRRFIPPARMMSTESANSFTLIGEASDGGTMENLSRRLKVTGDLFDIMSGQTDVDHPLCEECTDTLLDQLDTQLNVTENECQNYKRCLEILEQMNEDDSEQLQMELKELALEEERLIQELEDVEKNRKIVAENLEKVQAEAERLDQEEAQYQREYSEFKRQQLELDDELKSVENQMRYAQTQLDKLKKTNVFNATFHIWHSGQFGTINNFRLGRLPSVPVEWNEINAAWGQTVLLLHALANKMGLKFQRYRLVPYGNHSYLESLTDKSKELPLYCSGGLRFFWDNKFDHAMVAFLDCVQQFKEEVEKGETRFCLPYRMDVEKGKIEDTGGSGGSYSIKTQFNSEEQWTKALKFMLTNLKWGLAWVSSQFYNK

Legend:
[1] = molecular target: Bcl-2 (human (endogenous in NB1RGB)) (UniProt P10415); assay: co-IP; aging NB1RGB cells treated with DMSO (also 50 μg/mL lotus germ extract with 10 μM TC-DAPK6) for 24 h; proteins cross-linked in cells with 1 mM DSP for 30 min before lysis in Tris lysis buffer; primary antibody covalently immobilised on protein A/G PLUS-agarose; western blotting
[2] = molecular target: Bcl-2 (human (endogenous in NB1RGB)) (UniProt P10415); assay: condition: only cells treated with 50 μg/mL lotus germ extract for 24 h; co-IP; aging NB1RGB cells treated with 50 μg/mL lotus germ extract for 24 h; proteins cross-linked in cells with 1 mM DSP for 30 min before lysis in Tris lysis buffer; primary antibody covalently immobilised on protein A/G PLUS-agarose; western blotting

binding [1]: binds
binding [2]: no binding
Substance: Beclin1 (from UniProt Q14457 1-450)
